Strings that start with PEPTIDE1 are HELM notation: dots part the residues, brackets hold end groups and non-standard residues.

Series [1] can be described thus: general procedure: peptide synthesis; Rink Amide resin (Novabiochem); 2-chlorotrityl resin preloaded with ethylendiamine linker; Oxyma pure / DIC.
Series [2] in a line: general procedure: peptide synthesis; Rink Amide; Oxyma pure / DIC. The settings on record: whole synthesis.

In the case of “PEPTIDE1{[Oct].[Aib].G.L.L.G.G.L.[Aib].G.I.L.[am]}$$$$V2.0”, in series [1] (whole synthesis, 216nm), the “final HPLC purity” value was found to be 98%. For the same substance, the isolated yield in series [2] came to 72.5%. As for “Oct-Aib^1-Gly-Leu-Leu^4-Gly-Gly-Leu-Aib^8-Gly-Ile-Leu^11-NH-(CH2)2-NH-FITC”, the “final HPLC purity” value in series [1] (conjugation step, 216 nm) is listed as 98%. For the substance “Oct-Aib^1-Gly-Leu-Aib^4-Gly-Gly-Leu-Api^8-Gly-Ile-Leu^11-NH2”, the “final HPLC purity” value in series [1] (whole synthesis, 216nm) was 95%. The isolated yield in series [2] is on record as 60.28%. For the substance “Oct-Aib^1-Gly-Leu-Aib^4-Gly-Gly-Leu-Api^8-Gly-Ile-Leu^11-NH-(CH2)2-NH-FITC”, the “final purity (method not given)” value in series [1] (conjugation step, analytical RP-HPLC, 216 nm) came out at 95%.

With “Oct-Aib^1-Gly-Leu-Leu^4-Gly-Gly-Leu-Aib^8-Gly-Ile-Leu^11-NH-(CH2)2-NH-Lipoyl”, the “final HPLC purity” value in series [1] (conjugation step, 216 nm) was determined as 96%. Consider “Oct-Aib^1-Gly-Leu-Aib^4-Gly-Gly-Leu-Api^8-Gly-Ile-Leu^11-NH-(CH2)2-NH-Lipoyl”, for which, in series [1] (conjugation step, 216 nm), the “final HPLC purity” value was 96%.

The record behind these values is paper PMC10057332 (International Journal of Molecular Sciences, 2023).
